From CN109942709A
These are yes or no findings as the source states them, for the method shown. Some binding calls cover weakened binding; strength is not graded here.

The chains behind the UniProt entries cited, without tags or fusion partners. Residues count along the entry.
UniProt Q02223, residues 1-54: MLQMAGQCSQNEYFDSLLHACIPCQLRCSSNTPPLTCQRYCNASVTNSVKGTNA

B1: QL197A11 (clone, culture lysate) (VHH)
VHH: QVLLVESGGGLVQAGGSLRLSCAVSGRTVSTATMGWFRQAPGKEREFVAALNWSGNKSYYADSVKGRFAISRDEAKNTVYLQMNSLKPEDTAVYHCAAGPDLNYYTNYDARRYDHWGQGTQVTVSS
B2: QL197C9 (clone, culture lysate) (VHH)
VHH: QGQYVESGGGSVQAGESLRLSCIGSHTTAINAAGWYRQTPGKQRELVGLIHNDGSTQYAQFAKGRFTISRDDAKDAVYLQMNSLKVEDTGVYYCNIDSRGVGPVWAHWGQGTQVTVSS
B3: QL197D11 (clone, culture lysate) (VHH)
VHH: QAQLKESGGGSVRTGESLRLSCEASGNIYSINRMAWYRQVSGMQREVVATSLVDGTTNYGDSVKDRFTVSRDNAKKMVFLQMNSLEPADTGVYYCNVEGNRIDYAPGSRYPTHSYVELWGQGTQVTVSS
B4: QL197E2 (clone, culture lysate) (VHH)
VHH: QVQLVENGGGLVQPGGSLRLSCAASGASFNDYHMGWFRQAPGQERKFVAQIARYGAATYYARAVQGRFTISVDDAKNTVYLQMNGLTPDDTGVYYCTADRSNYYIDNALPDYWGQGTQVTVSS
B5: QL197F4 (clone, culture lysate) (VHH)
VHH: QVQLIESGGGLVQAGTSLTLSCASSGRNFNSYAMGWFRQAPGKEREFLATISRAAGSTYYADSAKGRFTISRDNRKEFAYLQIHDLKPDDTAVYYCAAESWTPTTGWPPTKADEFDYWGQGTQVTVSS
B6: QL197F7 (clone, culture lysate) (VHH)
VHH: QDRLVESGGGSVQAGGSLKLSCRTSGFNLDDYAIGWFRQAPGKERERVSCISSDGRTSHTGSAKGRFTIRSANARNTVYLQLNRLTPEDAGVYFCAAERTSRLCSFLSYDYWGQGTQVTVSS
B7: QL197G8 (clone, culture lysate) (VHH)
VHH: QVQLVESGGGLVQAGGSLRLSCAASGRTFSDHTLGWFRQAPGKEREFVGAISWSGGSTYYADSVSGRFTISRDKAKNTGYLQMNSLKPEDTAVYYCAAADDRYSDYRYWGQGTQVTVSS

What follows are binders tested against 人BCMA (ELISA包被抗原) (human) (UniProt Q02223) (assay: ELISA of clone culture lysates on coated BCMA free peptide and human BCMA, HSA as negative control).
With B1 the binding was “binds”.
With B2 the binding was “binds”.
B3 was tested, and the binding was “binds”.
In the case of B4, the binding is reported as “binds”.
B5 was tested, and the binding was “binds”.
For B6, the binding was “binds”.
In the case of B7, the binding is reported as “binds”.
